For 1 molecule, binding results are on record in US20110171183A1.

No constants are given. Whether binding was seen depends on the method and setting. Some binding calls cover weakened binding; strength is not graded here.

Experiment [1] addresses T1, Podocalyxin-like protein (PODXL), human, on the surface of hESC (HES-3) and IPSC (ES4SKIN, ESIMR90) (human) (UniProt O00592).
T1 sequence: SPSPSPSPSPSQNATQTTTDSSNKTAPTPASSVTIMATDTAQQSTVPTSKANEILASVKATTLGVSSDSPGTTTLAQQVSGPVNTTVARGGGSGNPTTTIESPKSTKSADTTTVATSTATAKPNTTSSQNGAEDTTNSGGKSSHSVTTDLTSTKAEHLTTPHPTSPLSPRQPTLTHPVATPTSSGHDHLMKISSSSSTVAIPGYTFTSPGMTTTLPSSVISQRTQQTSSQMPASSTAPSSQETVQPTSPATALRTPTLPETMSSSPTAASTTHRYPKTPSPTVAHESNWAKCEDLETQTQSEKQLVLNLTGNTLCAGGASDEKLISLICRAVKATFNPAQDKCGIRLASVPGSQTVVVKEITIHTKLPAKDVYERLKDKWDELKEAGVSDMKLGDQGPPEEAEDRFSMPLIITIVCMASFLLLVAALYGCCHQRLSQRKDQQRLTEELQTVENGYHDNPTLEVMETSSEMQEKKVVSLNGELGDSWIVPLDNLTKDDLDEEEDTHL
The experiment in a line: flow cytometry on hESC and IPSC lines, taken together with the PI exclusion cytotoxicity assay.

The target of experiment [2] is T1, Podocalyxin-like protein (PODXL), human, on the surface of hESC (HES-3) and IPSC (ES4SKIN, ESIMR90) (human). The experiment can be described thus: flow cytometry on HES-3, ES4SKIN and ESIMR90 cells, anti-mouse-FITC detection.

B1: mAb 84 (antibody, V domains shown)
VH: QVQLQQSGGGLVQPGGSMKLSCVASGFTFSNYWMNWVRQSPEKGLEWVAEIRLKSNNYATHYAESVKGRFTISRDDSKSSVYLQMNNLRAEDTGIYYCTGERAWGQGTTVTVSS
VL: DIELTQSPAIMSASPGEKVTMTCSASSSVNYMYWYQQKPGSSPRLLIYDTSNLASGVPVRFSGSGSGTSYSLTISRMEAEDAATYYCQQWSSYPYTFGGGTKLEIKR
With B1, the binding entry in experiment [1] and in experiment [2] was “binds” in each case.
